Measured values published in the supplement of paper PMC5949888.
Most values lie at the floor of the assay. Slopes are relative: functional sequences can read slightly below zero.

What follows are substances tested on Saccharomyces cerevisiae PS128 hsf1 delta, HSF1(1-493) fusion (assay: growth estimate (transactivation domain function in HSF1 fusion, heat-shock survival) (a.u. (slope of normalised read count over time)); higher = stronger growth at 37°C, i.e. more transactivation activity). Conditions: library: random library.
Experimental: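 Random 60-nt DNA library encoding peptides of up to 20 aa, fused to the C-terminus of yeast HSF1 residues 1-493 (C-terminal TAD deleted) and expressed from the native HSF1 promoter on a CEN plasmid in hsf1-deleted S. cerevisiae PS128. Cells were selected at 37°C on -trp 5-FOA plates for 0, 2, 4, 6 and 8 days and amplicons were sequenced. Growth estimate is the slope of a robust linear fit of total-sum-normalised read counts (normalised to the first time point) over time, using at least 2 replicates. Sequences are classed functional (TAD activity) above a threshold of -0.13, set from stop-codon control sequences.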
LASTV showed a growth estimate of less than -0.25.
AVLLSPSSRLIMRIVLHLLQ was tested, and the growth estimate was less than -0.25.
Substance ARCVCYGTVPWSWFFLELTV has a growth estimate of less than -0.25.
In the case of GVSCACRRSGYKLCQYCLSS, the growth estimate is reported as less than -0.25.
Work on GCYVERR yielded a growth estimate of less than -0.25.
RLNSDILTVWYGKGIPATMN was tested, and the growth estimate was less than -0.25.
For RDYKAAVDPEGPLGAWSVLL, the growth estimate was less than -0.25.
With RYRPRSCRILFYVRQCTYPR the growth estimate was less than -0.25.
PQRRSWRI gave a growth estimate of less than -0.25.
With YDGTQSV the growth estimate was less than -0.25.
TRSVY gave a growth estimate of less than -0.25.
TGGIPQSSRRSRRTSWEYRA showed a growth estimate of less than -0.25.
VFNCQLLSSGVVNTDSTILP showed a growth estimate of less than -0.25.
IRVKLM gave a growth estimate of less than -0.25.
PVRTIQAPRL gave a growth estimate of less than -0.25.
RPGARNQCGHFAATEETMGS was tested, and the growth estimate was less than -0.25.
DPGIRILE gave a growth estimate of less than -0.25.
For GPALLRTIVCEL, the growth estimate was less than -0.25.
For CQVVPTSSKQTDAPLNV, the growth estimate was less than -0.25.
Substance YSGHLGSHNTQRAGNKS has a growth estimate of less than -0.25.
VVLLPVLKIVDPVV showed a growth estimate of less than -0.25.
In the case of VVKPLWLLSL, the growth estimate is reported as less than -0.25.
Substance YKKP has a growth estimate of less than -0.25.
For GPMLLVQNAVTFK, the growth estimate was less than -0.25.
In the case of GYDASSGLPTVSHGQLYHRY, the growth estimate is reported as less than -0.25.
Substance MNGCSGEGKGDLRWSWGSAP has a growth estimate of less than -0.25.
For MSLHKEVRIAAAVSGTGPDH, the growth estimate was less than -0.25.
For CPIFSDGRNYWLPFRGRLAT, the growth estimate was less than -0.25.
In the case of GPT, the growth estimate is reported as less than -0.25.
Substance MRMAQDRTLGYAYAVPCSF has a growth estimate of less than -0.25.
Work on SDPRVAYRLITF yielded a growth estimate of less than -0.25.
In the case of WLWSDGALGM, the growth estimate is reported as less than -0.25.
Work on VVDAVLPPVQ yielded a growth estimate of less than -0.25.
Work on QVTVVSGADEYKPLRRSIPG yielded a growth estimate of less than -0.25.
NTSVMCYWRAYIINDLSFK was tested, and the growth estimate was less than -0.25.
GQVAFDGRFGQITTLSMQDH gave a growth estimate of less than -0.25.
EEDVV was tested, and the growth estimate was less than -0.25.
Work on QMFKRHHMCILVIYDHPATI yielded a growth estimate of less than -0.25.
Work on DSGPDLQGVDSVRSAPTILV yielded a growth estimate of less than -0.25.
With CLDYGGISG the growth estimate was less than -0.25.
KCVFTERKTKSPGDSASRCS gave a growth estimate of less than -0.25.
In the case of PGGSRPYDEIAERQKPARWL, the growth estimate is reported as less than -0.25.
With VQLAQPGIVGGPA the growth estimate was less than -0.25.
For KTTRIKLKQPLP, the growth estimate was less than -0.25.
Work on HCVKKKPPGHIEPGFQRALT yielded a growth estimate of less than -0.25.
RIFSAVESIAANADPVHLTP gave a growth estimate of less than -0.25.
For ELTAGAHGGPAEDRHGRLRA, the growth estimate was less than -0.25.
In the case of LPRSLNRFRNLYLGI, the growth estimate is reported as less than -0.25.
VRS showed a growth estimate of less than -0.25.
With LGRNRLLVFC the growth estimate was less than -0.25.
With PMAEV the growth estimate was less than -0.25.
LPARVRGQRSGRLGTRGHMP showed a growth estimate of less than -0.25.
SSAYAFEKSGRARPDKHSAG was tested, and the growth estimate was less than -0.25.
In the case of ATSRKGPTFFPSRGPRGYRA, the growth estimate is reported as less than -0.25.
For GFDAGQYAPGSNNRSGSTAG, the growth estimate was less than -0.25.
In the case of PYVGRTEGYTPNRDIDPTRR, the growth estimate is reported as less than -0.25.
PHVGHTVIRLFRSGRHRASR gave a growth estimate of less than -0.25.
IRIRQNHGSLRTDQHEGTSI gave a growth estimate of less than -0.25.
Substance PMAKVGAFLRRTTQPN has a growth estimate of less than -0.25.
YELAERVARKKPREHRVCLL gave a growth estimate of less than -0.25.
TSMGFLLGLSPRS showed a growth estimate of less than -0.25.
Substance LLLGFLRSYWCHTTVHRTRR has a growth estimate of less than -0.25.
Work on AYICVVWWKTTYNKRVKGVW yielded a growth estimate of less than -0.25.
GGGLVYSDYVTCFSSGSSQS gave a growth estimate of less than -0.25.
PRPGPLTQTRVFGRRDNGVE gave a growth estimate of less than -0.25.
For RFTPLEGSKVTSTGRNAIHE, the growth estimate was less than -0.25.
For SYHSAANTLSKQEFSDGIIA, the growth estimate was less than -0.25.
CVKEP was tested, and the growth estimate was less than -0.25.
RSQDAPLYCRG was tested, and the growth estimate was less than -0.25.
With GIVCPLAWSSRENELRRTQV the growth estimate was less than -0.25.
Substance LNGSGSSVLAKACRRRVARI has a growth estimate of less than -0.25.
TLYCLMIKLEL gave a growth estimate of less than -0.25.
Work on SLHGRCATFTPLRAVQVFVP yielded a growth estimate of less than -0.25.
Substance ALNTAVGM has a growth estimate of less than -0.25.
CRGDSEKT gave a growth estimate of less than -0.25.
In the case of IDWRASRLALYFKETLHRHN, the growth estimate is reported as less than -0.25.
EKWGSCLKLVDGL showed a growth estimate of -0.19.
RTIISTSGARFLRITCFGNG showed a growth estimate of less than -0.25.
For FWRLLEL, the growth estimate was less than -0.25.
FRLFSERRLMCWKVYFGDRL gave a growth estimate of less than -0.25.
For RVSGGRCKRHPLVERWTRLS, the growth estimate was less than -0.25.
For PIAYC, the growth estimate was -0.243.
Work on LTPQR yielded a growth estimate of less than -0.25.
GIASRTCQRLYRMINRCFAV gave a growth estimate of less than -0.25.
Work on MTVTVELAEPIPGYGNSART yielded a growth estimate of less than -0.25.
In the case of PCCGMSG, the growth estimate is reported as less than -0.25.
In the case of RNPASRKAGDIEIVRSLMFR, the growth estimate is reported as less than -0.25.
DCRTYWVRGPCIQERTLIVI gave a growth estimate of less than -0.25.
IKPKVVIL was tested, and the growth estimate was less than -0.25.
With LQMLGRG the growth estimate was less than -0.25.
WSVICGRTPKFRPGS showed a growth estimate of less than -0.25.
YESVGL gave a growth estimate of less than -0.25.
For KYI, the growth estimate was less than -0.25.
In the case of EMLTTSCTTRIFPVCSFMRT, the growth estimate is reported as less than -0.25.
PCTIGGKRMSPAGSVPVWAH was tested, and the growth estimate was less than -0.25.
In the case of LSKGLGGPSV, the growth estimate is reported as less than -0.25.
For GPVTPTRHRKRCVVRTVCLS, the growth estimate was less than -0.25.
Substance PWFGLLYCQLG has a growth estimate of less than -0.25.
PELCYYVVEPRTSYRTDSRA showed a growth estimate of less than -0.25.
For RQPEQTRHPGKPR, the growth estimate was less than -0.25.
RQGEQGTPVRVGPGNRYAVK gave a growth estimate of less than -0.25.
LPLHVSLAGCKEVRLV gave a growth estimate of less than -0.25.
Substance QGLR has a growth estimate of less than -0.25.
In the case of RSRYCASTCTEQSDGVVNLS, the growth estimate is reported as less than -0.25.
In the case of YLGVAECNPAHAGQSV, the growth estimate is reported as less than -0.25.
LVTRFKAYEDRLRRSSIT was tested, and the growth estimate was -0.241.
TLSPTKTCTFHCVVGCCCVG was tested, and the growth estimate was less than -0.25.
In the case of LSPTVG, the growth estimate is reported as less than -0.25.
In the case of VGTPRRRSSSACCEMDSTHS, the growth estimate is reported as less than -0.25.
SSHQEL gave a growth estimate of less than -0.25.
YQVQGDTGMHDSDSRTLDGP was tested, and the growth estimate was less than -0.25.
RGVYTTF gave a growth estimate of less than -0.25.
For IRGSFSKNA, the growth estimate was less than -0.25.
IALIIRSKWPTNLRPDVSGR gave a growth estimate of less than -0.25.
Substance TRVAQLSLM has a growth estimate of -0.231.
FTPPGERGGNYFLLVRLTKG gave a growth estimate of less than -0.25.
With SCLRYTGNKVVRSGSYT the growth estimate was less than -0.25.
In the case of RLGYIPPVRRRP, the growth estimate is reported as less than -0.25.
Substance YEVCLI has a growth estimate of less than -0.25.
Substance HCRGFGVGRLALAFTIWTTR has a growth estimate of less than -0.25.
With FRLK the growth estimate was less than -0.25.
Work on TFARGKLQIAEILAGRRLG yielded a growth estimate of less than -0.25.
Substance VGIAEEAQGWFPVGTSLRYR has a growth estimate of less than -0.25.
For HNGVYTPFSGTN, the growth estimate was less than -0.25.
Substance ITNAPVIRRPMASIHMSNPR has a growth estimate of less than -0.25.
With IQTLSPGAVFA the growth estimate was less than -0.25.
Substance VNKTASRLFMPPLLDKTFRP has a growth estimate of less than -0.25.
For FVCYCPGWPRRLGCTYPCGT, the growth estimate was less than -0.25.
In the case of FYSMYQQCESACRGLTVRAN, the growth estimate is reported as less than -0.25.
DTRFPAHDLPLEGMAGPID gave a growth estimate of less than -0.25.
YSGPLRIQQIIPL was tested, and the growth estimate was less than -0.25.
Substance SYYKSSCLCSDQ has a growth estimate of less than -0.25.
For FTFAHARKKG, the growth estimate was less than -0.25.
In the case of HNRVIEA, the growth estimate is reported as less than -0.25.
In the case of DTAG, the growth estimate is reported as less than -0.25.
YATWKGVTFETAGR showed a growth estimate of less than -0.25.
FRGSAFLSEGPDPAPCSTGP showed a growth estimate of less than -0.25.
For RSIIWYMVIRTRPFGATFRN, the growth estimate was -0.214.
LSLRKIDRQVIRRSPTVVQV gave a growth estimate of less than -0.25.
In the case of NHPAFLVSTMMDHPI, the growth estimate is reported as less than -0.25.
Work on RPEIRPGHCAG yielded a growth estimate of less than -0.25.
DLHAYLDRFLLGPGLRGPNH showed a growth estimate of -0.239.
TSLGPSLATGV gave a growth estimate of less than -0.25.
In the case of GRSLKEETNVEDPIGIQESL, the growth estimate is reported as less than -0.25.
